Source: PMC7819943, “Rice protein-binding microarrays: a tool to detect cis-acting elements near promoter regions in rice”
The list shows a part of the results.

The chains behind the UniProt entries cited, without tags or fusion partners.
UniProt Q0JBA9, entry or part of it: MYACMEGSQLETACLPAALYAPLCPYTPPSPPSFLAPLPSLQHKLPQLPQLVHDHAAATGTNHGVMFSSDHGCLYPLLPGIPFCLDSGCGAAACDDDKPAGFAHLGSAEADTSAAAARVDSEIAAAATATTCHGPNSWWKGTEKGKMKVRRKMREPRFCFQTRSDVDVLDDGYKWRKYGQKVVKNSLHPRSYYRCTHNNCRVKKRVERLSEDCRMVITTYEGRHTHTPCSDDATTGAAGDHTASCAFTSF

The sequences below were run against OsWRKY34 (Oryza sativa, UniProt Q0JBA9 1-250) (assay: protein-binding microarray (RPBM); PBS, 2% BSA, 51.3 ng/ul salmon testes DNA, 50 uM zinc acetate, 200 nM TF, 25 C, 1 h; high values mean tight binding). Settings: protein: recombinant; tags: N-terminal polyhistidine and DsRed monomer fusion (pET32a); label: CyDye5-dUTP incorporated in the synthesized complementary strand; 3' TTTTT single-stranded linker to array surface; dsDNA, one strand shown.
Procedure, shortened: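 The binding signal is fluorescence intensity per array feature (arbitrary units). Readings came from an Axon 4000B scanner after a washed, 2% BSA-blocked, double-stranded custom Agilent array had been incubated for 1 h at 25 °C with 200 nM protein and 50 µM zinc acetate. The protein was a Ni–NTA-purified transcription factor fused N-terminally to polyhistidine and DsRed, expressed in E. coli BL21-CodonPlus.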
With “GTGGTATATTTGGATGCTTCCCTTTCACGCAAGCGCGTTTCGGAGTCACCTAGTGCAG” the binding signal was 14100 fluorescence intensity (a.u.). In the case of “ACTGCTCGCTGGGGATGCGGCTTCCTGTCCCGATACCTGTCGGAGTCACCTAGTGCAG”, the binding signal is reported as 8040 fluorescence intensity (a.u.). In the case of “AAATAGCCCCATGTTCATTGTTTGCCGCACCACAGCGTAGCGGAGTCACCTAGTGCAG”, the binding signal is reported as 10100 fluorescence intensity (a.u.). In the case of “CCTATCCACCGCTACCTTGTCTCGTTGGTTTGCAGCTTTACGGAGTCACCTAGTGCAG”, the binding signal is reported as 8610 fluorescence intensity (a.u.). For “GCCACCGCTCAACCGCCTCCGCCGATCCGCCTCCGACGCTCGGAGTCACCTAGTGCAG”, the binding signal was 8500 fluorescence intensity (a.u.). With “ACGCGCGCCCGGTTCACGCTTTGCCTAGATCGCGTATGTACGGAGTCACCTAGTGCAG” the binding signal was 8280 fluorescence intensity (a.u.). “CAGGTCAACCGCAATTCTTTCGTCCTCGGTCACTTTTATTCGGAGTCACCTAGTGCAG” was tested, and the binding signal was 12100 fluorescence intensity (a.u.). In the case of “CGCATTGATTTTTTTTTCTATTAAACCTGGGGTTAACTTTCGGAGTCACCTAGTGCAG”, the binding signal is reported as 9350 fluorescence intensity (a.u.). For “GCCGATCTCCATCACCACCTGCGGCCTCCACTGCCCAATCCGGAGTCACCTAGTGCAG”, the binding signal was 10600 fluorescence intensity (a.u.). “TTTGGTCAAAGTCAAACTGCTTCTAGTTTGACTAAATTTACGGAGTCACCTAGTGCAG” was tested, and the binding signal was 17800 fluorescence intensity (a.u.). “TCCTCGCCGCTCCGATTTGTTATCCTCCTCGCACATGTATCGGAGTCACCTAGTGCAG” was tested, and the binding signal was 13300 fluorescence intensity (a.u.). For “GCCCTGTGTGTTCACCGCCGCTCAACCATCGCCTCGGCCGCGGAGTCACCTAGTGCAG”, the binding signal was 10700 fluorescence intensity (a.u.). For “GCTCCTCCTCCTCTTCCCGCCTCACCGCCGCACCACCTCTCGGAGTCACCTAGTGCAG”, the binding signal was 8550 fluorescence intensity (a.u.). For “GGAGCCAGTAGTTGTCTATACTATTAAACTTGCTTTTATACGGAGTCACCTAGTGCAG”, the binding signal was 8460 fluorescence intensity (a.u.). “TCTCTCTCTCTCACTCGCTCGCTTCTCGGGGCGCCTCCTCCGGAGTCACCTAGTGCAG” was tested, and the binding signal was 9420 fluorescence intensity (a.u.). In the case of “AAAAGGGACCCCATTCTTATTTTTTCCTGTGTTTTGTAATCGGAGTCACCTAGTGCAG”, the binding signal is reported as 8560 fluorescence intensity (a.u.). For “ATGTCCTTATGCCAACCTCCATTTTCCAGCTCAATCTTTTCGGAGTCACCTAGTGCAG”, the binding signal was 9420 fluorescence intensity (a.u.). In the case of “GACTCGGCGGCCTCTGCTCCTCCGCTCGTTCCTCTCCCGACGGAGTCACCTAGTGCAG”, the binding signal is reported as 11100 fluorescence intensity (a.u.). With “CACACTCACATATATATATACACACAAACACACAAGCATACGGAGTCACCTAGTGCAG” the binding signal was 8050 fluorescence intensity (a.u.). In the case of “TCCATACCAATCTCATCAACCATGAACCACCCGCGCCCGACGGAGTCACCTAGTGCAG”, the binding signal is reported as 8370 fluorescence intensity (a.u.). In the case of “TCCGTTATATATTCTCACCGTATTGTGCATTGGACCTTTTCGGAGTCACCTAGTGCAG”, the binding signal is reported as 11800 fluorescence intensity (a.u.). “ACCGAATTCTATTGTACTCCATCATTTTCTACTAGTTGCGCGGAGTCACCTAGTGCAG” was tested, and the binding signal was 10500 fluorescence intensity (a.u.). In the case of “GCGCCGACTGCCCGTCCGCCCCGTTGCTGCTGTGCGCACTCGGAGTCACCTAGTGCAG”, the binding signal is reported as 8290 fluorescence intensity (a.u.). “GGTTCTGGGTTAAGTATTATAAACTATCACGTGCATGTTTCGGAGTCACCTAGTGCAG” was tested, and the binding signal was 8670 fluorescence intensity (a.u.). With “TTGTATCGTTTTGGTAGGGGATGGGATGTGCTATACGGGGCGGAGTCACCTAGTGCAG” the binding signal was 11700 fluorescence intensity (a.u.). With “GACACACGATTTCTTAAGGCTCATACTTTATGCTTGTCTACGGAGTCACCTAGTGCAG” the binding signal was 11300 fluorescence intensity (a.u.). With “CAATCGATTCTCACATCCATCCATCTGCCTATCTATCTCTCGGAGTCACCTAGTGCAG” the binding signal was 9080 fluorescence intensity (a.u.). With “TAGAGGGATGGGCTATTAAGTGTTTTATTTGGTTGGGAGACGGAGTCACCTAGTGCAG” the binding signal was 15200 fluorescence intensity (a.u.). “TGGTTGGTGGTGGTTAGCTAACACGCGGCATCTTCTCCTCCGGAGTCACCTAGTGCAG” was tested, and the binding signal was 8170 fluorescence intensity (a.u.). For “TTCCATCCATCGGCTCTGGTGTACATGCATTATCCATATCCGGAGTCACCTAGTGCAG”, the binding signal was 8700 fluorescence intensity (a.u.). With “AGTATATGTTATGGCTTATATATTGTGGACGCATCGTATCCGGAGTCACCTAGTGCAG” the binding signal was 8420 fluorescence intensity (a.u.). “TCAGCCGCATCTCTACTACTACTACTACTACCCTTGCTCTCGGAGTCACCTAGTGCAG” was tested, and the binding signal was 10400 fluorescence intensity (a.u.). “GGGGTAGTGAGGATAACGTGTGGGTCCGCGCGGGCCCACCCGGAGTCACCTAGTGCAG” was tested, and the binding signal was 8230 fluorescence intensity (a.u.). With “TTCCTCCTCCGGCCACCTCCGCCGGGCGTTGACCCCTACGCGGAGTCACCTAGTGCAG” the binding signal was 9030 fluorescence intensity (a.u.). For “TATTGTTTAGTTGGGAAAAAAATTTGGGGTTGGTTGTCACCGGAGTCACCTAGTGCAG”, the binding signal was 10400 fluorescence intensity (a.u.). “CAACCCACTCCGTTTCTCTCTCTTACCTAAGCCGCGTCCTCGGAGTCACCTAGTGCAG” was tested, and the binding signal was 9460 fluorescence intensity (a.u.). With “TTGTTCCATTTCATATTTGCTTCGTATATATAGTCGATTCCGGAGTCACCTAGTGCAG” the binding signal was 8480 fluorescence intensity (a.u.). “TCTGTGTGCTGCTGCCTCTGCAATTCTGAAACCGATCTCCCGGAGTCACCTAGTGCAG” was tested, and the binding signal was 9350 fluorescence intensity (a.u.). With “GTGGGGTTTCATCGTTCAATGAGTTTATTCATGAACTCTCCGGAGTCACCTAGTGCAG” the binding signal was 8880 fluorescence intensity (a.u.). For “TATCCAAGGTTGTCAGTATCCCGATTCGTATCCCAGTATCCGGAGTCACCTAGTGCAG”, the binding signal was 12300 fluorescence intensity (a.u.). For “ACTTTGCTCCTCTTCATGCCATCGCCGTTGAAGCTAACAACGGAGTCACCTAGTGCAG”, the binding signal was 8640 fluorescence intensity (a.u.). For “AGGTGATGTTTGGGGTCGTTGGGTTGGTCCGCGTTCTTGCCGGAGTCACCTAGTGCAG”, the binding signal was 17400 fluorescence intensity (a.u.).
